Measured values published in article doi:10.1101/2025.01.13.632772.
These are yes or no findings as the source states them, for the method shown. In cells and extracts the contact can be indirect.

Protein sequences, listed by entry. Tags and fused reporters are not part of them.
UniProt P25106: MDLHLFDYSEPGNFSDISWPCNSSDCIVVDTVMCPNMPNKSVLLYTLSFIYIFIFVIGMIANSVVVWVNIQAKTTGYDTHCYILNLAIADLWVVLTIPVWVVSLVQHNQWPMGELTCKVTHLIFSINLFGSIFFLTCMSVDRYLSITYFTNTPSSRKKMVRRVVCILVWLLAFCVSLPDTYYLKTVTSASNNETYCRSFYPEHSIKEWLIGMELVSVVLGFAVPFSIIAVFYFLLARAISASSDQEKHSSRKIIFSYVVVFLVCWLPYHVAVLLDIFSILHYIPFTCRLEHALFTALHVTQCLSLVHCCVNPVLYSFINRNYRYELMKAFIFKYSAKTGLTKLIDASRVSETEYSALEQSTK
UniProt P20309: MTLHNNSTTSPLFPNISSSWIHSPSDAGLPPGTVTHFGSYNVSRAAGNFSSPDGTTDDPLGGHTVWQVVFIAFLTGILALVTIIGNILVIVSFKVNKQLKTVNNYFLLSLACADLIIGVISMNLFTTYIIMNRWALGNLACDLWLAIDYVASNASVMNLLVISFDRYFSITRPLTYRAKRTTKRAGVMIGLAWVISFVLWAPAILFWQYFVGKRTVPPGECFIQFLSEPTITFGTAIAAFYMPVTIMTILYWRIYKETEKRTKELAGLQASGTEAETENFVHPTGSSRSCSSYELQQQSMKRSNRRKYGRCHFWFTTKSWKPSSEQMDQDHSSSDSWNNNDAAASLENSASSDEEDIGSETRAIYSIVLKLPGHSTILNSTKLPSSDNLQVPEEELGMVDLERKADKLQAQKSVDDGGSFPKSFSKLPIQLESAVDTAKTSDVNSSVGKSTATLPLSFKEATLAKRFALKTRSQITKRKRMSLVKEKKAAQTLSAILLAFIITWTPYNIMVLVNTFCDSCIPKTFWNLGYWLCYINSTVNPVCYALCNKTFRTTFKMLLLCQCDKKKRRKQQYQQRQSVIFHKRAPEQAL

Molecular target: CXCR7 (human (endogenous in primary infant ASMCs)) (UniProt P25106)
Test: co-IP

- binding: no binding
Substance: muscarinic acetylcholine receptor 3 (from UniProt P20309 1-590)
